The other results are listed elsewhere or left out. The source does not settle which construct or isoform was used.

For this experiment, the target named is T1, ELF2 (UniProt Q15723).
T1 sequence: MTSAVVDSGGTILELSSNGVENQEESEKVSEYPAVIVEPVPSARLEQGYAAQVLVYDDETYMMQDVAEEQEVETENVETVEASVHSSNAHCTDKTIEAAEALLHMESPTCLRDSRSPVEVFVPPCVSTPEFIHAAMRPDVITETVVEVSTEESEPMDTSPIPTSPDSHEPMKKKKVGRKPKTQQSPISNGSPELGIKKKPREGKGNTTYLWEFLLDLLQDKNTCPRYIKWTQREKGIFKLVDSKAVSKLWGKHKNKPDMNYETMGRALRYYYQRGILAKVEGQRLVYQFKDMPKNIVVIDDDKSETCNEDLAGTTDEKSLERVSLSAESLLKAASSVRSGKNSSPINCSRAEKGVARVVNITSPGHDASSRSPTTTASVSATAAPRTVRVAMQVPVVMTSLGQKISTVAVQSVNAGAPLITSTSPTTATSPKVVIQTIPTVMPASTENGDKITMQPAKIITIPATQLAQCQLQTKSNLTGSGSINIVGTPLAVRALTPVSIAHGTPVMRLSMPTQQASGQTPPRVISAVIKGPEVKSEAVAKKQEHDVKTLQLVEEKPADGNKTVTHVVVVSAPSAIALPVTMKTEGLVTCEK
Put plainly: DAPPL (digital affinity profiling via proximity ligation, sequencing). The note with it: 10 mM Tris-HCl pH 7.5, 50 mM NaCl, 1 mM DTT, 4% glycerol, room temperature, 30 min; GST-TFs on glutathione beads, 16-mer random dsDNA library, 0.1% …; high values mean tight binding; double strand, one strand shown; scale: fold enrichment (6-mer frequency, TF over GST control).
As to TCCATC, the binding signal amounted to 1.11.

TTTGGC returned a binding signal of 1.2. As for ACTCGC, the figure is 1.09; as for CCTAAA, 1.27; as for CTTGAT, 1.33. The same measure for ATCTAC: 1.28. As for AACGCT, the figure is 1.2. The sequence CCCAAT displayed a binding signal of 1.24. As for TCACTT, the figure is 2.06; as for CTAAGC, 1.02. As to TTGATT, the binding signal amounted to 1.24. The same measure for TTCTTC: 2.21; for TTTCAG: 1.27. For the sequence TATAAC, the binding signal amounted to 1.23. The same measure for TCCGGA: 3.9; for TTCAGC: 1.18; for ACTAAG: 1.03.

As for TAAAAG, the binding signal stood at 1.15. For ATAGTA, the binding signal was determined as 1.14. As for ACCGTC, the figure is 1.11. AAACCA registered a binding signal of 1.19. The same measure for TCTGGG: 1.03; for ATTCAG: 1.12.

For TTTTAA, the binding signal was determined as 1.22. The same measure for TCTCCG: 1.46. The same measure for TGGTAC: 1.13; for TTATAC: 1.36; for ATAAAC: 1.14. The same measure for ACGAAC: 1.13; for TTCAAG: 1.2.

For the sequence TGCTTC, the binding signal was 2.57. The same measure for CCGACC: 1.48.

TAAATA yielded a binding signal of 1.25. Sequence CTCTTG displayed a binding signal of 1.2. Turning to GAATCT, the binding signal was 1.07. As for ACCTAA, the figure is 1.1; as for AGCTAA, 1.04; as for TGTAAA, 1.12. In the case of CGACTT, the binding signal was 1.86.
